Drawing on publication doi:10.1101/2022.06.03.494746, this text covers binding for five molecules.

No constants are given. Whether binding was seen depends on the method and setting. In cells and extracts the contact can be indirect. Here binding means that the protein was enriched with, or labelled near, the bait; the list need not be complete.

This assay addresses DCP1-TurboID-6xHis-3xFLAG (Arabidopsis). Briefly: proximity labelling.

B1: NF-X1-type zinc finger protein NFXL1 (protein, UniProt Q9SY59 1-1188)
chain: MSFQVRRDRSDDRSHRFNHQQTWIPRNSSTSSVVVNEPLLPPNTDRNSETLDAGSASRPVYLQRQHNASGPPSYNHHQRSSNIGPPPPNQHRRYNAPDNQHQRSDNIGPPQPNQHRRYNAPDNQHQRSDNSGPPQPYRHRRNNAPENQHQRSDNIGPPPPNRQRRNNASGTLPDNRQRVASRTRPVNQGKRVAKEENVVLTDPNLPQLVQELQEKLVKSSIECMICYDKVGRSANIWSCSSCYSIFHINCIKRWARAPTSVDLLAEKNQGDNWRCPGCQSVQLTSSKEISYRCFCGKRRDPPSDPYLTPHSCGEPCGKPLEKEFAPAETTEEDLCPHVCVLQCHPGPCPPCKAFAPPRSCPCGKKMVTTRCSERRSDLVCGQRCDKLLSCGRHQCERTCHVGPCDPCQVLVNATCFCKKKVETVICGDMNVKGELKAEDGVYSCSFNCGKPLGCGNHFCSEVCHPGPCGDCDLLPSRVKTCYCGNTRLEEQIRQSCLDPIPSCSNVCRKLLPCRLHTCNEMCHAGDCPPCLVQVNQKCRCGSTSRAVECYITTSSEAEKFVCAKPCGRKKNCGRHRCSERCCPLLNGKKNDLSGDWDPHVCQIPCQKKLRCGQHSCESLCHSGHCPPCLEMIFTDLTCACGRTSIPPPLSCGTPVPSCQLPCPIPQPCGHSDTHGCHFGDCPPCSTPVEKKCVGGHVVLRNIPCGLKDIRCTKICGKTRRCGMHACARTCHPEPCDSFNESEAGMRVTCRQKCGAPRTDCRHTCAALCHPSAPCPDLRCEFSVTITCSCGRITATVPCDAGGRSANGSNVYCAAYDEASVLQKLPAPLQPVESSGNRIPLGQRKLSCDDECAKLERKRVLQDAFDITPPNLEALHFSENSAMTEIISDLYRRDPKWVLAVEERCKFLVLGKARGSTSALKVHIFCPMQKDKRDTVRLIAERWKLGVSNAGWEPKRFTVVHVTAKSKPPTRIIGARGGAISIGGPHPPFYDSLVDMDPGLVVSFLDLPREANISALVLRFGGECELVWLNDKNALAVFHDHARAATAMRRLEHGSVYHGAVVVQSGGQSPSLNNVWGKLPGSSAWDVDKGNPWRRAVIQESDDSWGAEDSPIGGSSTDAQASALRSAKSNSPIVTSVNRWSVLEPKKASTSTLEPIAQIEESSSSKTTGKQPVEGSGEEVVDDWEKVCE
As for B1, the binding result is given as “binds”.

B2: CTC-… DOMAIN 3 (CID3) (protein, UniProt Q8L793 1-587)
chain: MKPVLHSGSSSNGFSHRRFEKEAWMNNAQPSVDNTENGWDAESVDTPSQKLLVYFTTCNIGHQVEVHLKNGSVYSGIFHAANVEKDFGIILKMACLIRDSRGTKSRTVSKPSSKLLKIPADELVQVIAKDLPLSSDSVSDSVQCEKPLELLTDSLISQFYNVDLERELKPWVPDEDVPDCSDLENVFDDPWKRGWNQFEVNKTLFGVTSTFDEELYTTKLERGPGTRELEEQALRIAREIVGENTRDIHVAEERGLQLSGKFDIDEETKYSSVCATNRFDDTCYEDDEEEEEDILLDCCNNLTFGDSSASDGKEPASTGKFYEDSWGDSLHLRSNKMVDQSWSNSNKHTRQLMSELPSKDFPVAGNNIRNESQLGEQRKSKFLGASLFKKPSEESVSGFEDAPPPVKPSFIDGRLGLLSDRAKSENSSGWPGSSISRNSENSAASSASNLPILSPSSSGSLSSEKSTLNPNAKEFKLNPNAKSFKPSPSATRPQSPQSPVFDGSFYYPPVPPMPGLHIRYGTGAAFPGQQHPMMYNNTTQLSPNQTYYSPNSPQYPQPMMVTQQRPILFMPPTPYQPEMPYKGRDSY
On to B2, for which the binding result is recorded as “binds”.

B3: NECROTIC SPOTTED LESIONS 1 (NSL1) (protein, UniProt Q9SGN6 1-612)
chain: MAFNNFTRLDAHSAAEKAVSVIGLGYDLCSDVRFSACKTTPDGSRLVEIDPTRNRDLIFPGGIVVNNVSSSIKCDKGERTRLRSDILSFNQMSEKFNQDMCLSGKIPSGMFNNMFAFSKCWPKDASSVKTLAYDGWFISLYSVEIVRKQLTLRDEVKREVPSSWDSAALAGFIEKYGTHVVVGVTMGGKDVIHVKQMRKSNHEPEEIQKMLKHWGDERFCVDPVESKSPASVYSGKPKEENLLQWGLQPFGTSVSSAVVMHTKNEEIMRVCIRRGGVDLGQSHERWLSTVSQAPNVISMCFVPITSLLSGLPGTGFLSHAVNLYLRYKPPIEELHQFLEFQLPRQWAPVYGDLPLGLRRSKQSSPSLQFSLMGPKLYVNTSKVDSGERPVTGLRFFLEGKKGNHLAIHLQHLSACPPSLHLSHDDTYEPIEEPVEKGYYVPVKWGIFSHVCTYPVQYNGARSDDTASIVTKAWLEVKGMGMRKVLFLRLGFSLDASAVTRKSCWDNLSTNSRKSGVFSMISTRLSTGLSPNPATTKPQSKIDINSAVYPRGPSPPVKPKLLSLVDTKEVMRGPEEQPGYWVVTGAKLCVEAGKISIKAKYSLLTVISEDSLV
On to B3, for which the binding result was “binds”.

B4: RH6 (protein, UniProt Q94BV4 1-528)
chain: MNNNNNNRGRFPPGIGAAGPGPDPNFQSRNPNPPQPQQYLQSRTPFPQQPQPQPPQYLQSQSDAQQYVQRGYPQQIQQQQQLQQQQQQQQQQQEQQWSRRAQLPGDPSYIDEVEKTVQSEAISDSNNEDWKATLKLPPRDNRYQTEDVTATKGNEFEDYFLKRDLLRGIYEKGFEKPSPIQEESIPIALTGSDILARAKNGTGKTGAFCIPTLEKIDPENNVIQAVILVPTRELALQTSQVCKELSKYLKIEVMVTTGGTSLRDDIMRLYQPVHLLVGTPGRILDLAKKGVCVLKDCAMLVMDEADKLLSVEFQPSIEELIQFLPESRQILMFSATFPVTVKSFKDRYLKKPYIINLMDQLTLMGVTQYYAFVEERQKVHCLNTLFSKLQINQSIIFCNSVNRVELLAKKITELGYSCFYIHAKMVQDHRNRVFHDFRNGACRNLVCTDLFTRGIDIQAVNVVINFDFPRTSESYLHRVGRSGRFGHLGLAVNLVTYEDRFKMYQTEQELGTEIKPIPSLIDKAIYCQ
Take B4: the binding entry is reported as “binds”.

B5: argonaute1 (AGO1) (protein, UniProt O04379 1-1048)
chain: MVRKRRTDAPSEGGEGSGSREAGPVSGGGRGSQRGGFQQGGGQHQGGRGYTPQPQQGGRGGRGYGQPPQQQQQYGGPQEYQGRGRGGPPHQGGRGGYGGGRGGGPSSGPPQRQSVPELHQATSPTYQAVSSQPTLSEVSPTQVPEPTVLAQQFEQLSVEQGAPSQAIQPIPSSSKAFKFPMRPGKGQSGKRCIVKANHFFAELPDKDLHHYDVTITPEVTSRGVNRAVMKQLVDNYRDSHLGSRLPAYDGRKSLYTAGPLPFNSKEFRINLLDEEVGAGGQRREREFKVVIKLVARADLHHLGMFLEGKQSDAPQEALQVLDIVLRELPTSRYIPVGRSFYSPDIGKKQSLGDGLESWRGFYQSIRPTQMGLSLNIDMSSTAFIEANPVIQFVCDLLNRDISSRPLSDADRVKIKKALRGVKVEVTHRGNMRRKYRISGLTAVATRELTFPVDERNTQKSVVEYFHETYGFRIQHTQLPCLQVGNSNRPNYLPMEVCKIVEGQRYSKRLNERQITALLKVTCQRPIDREKDILQTVQLNDYAKDNYAQEFGIKISTSLASVEARILPPPWLKYHESGREGTCLPQVGQWNMMNKKMINGGTVNNWICINFSRQVQDNLARTFCQELAQMCYVSGMAFNPEPVLPPVSARPEQVEKVLKTRYHDATSKLSQGKEIDLLIVILPDNNGSLYGDLKRICETELGIVSQCCLTKHVFKMSKQYMANVALKINVKVGGRNTVLVDALSRRIPLVSDRPTIIFGADVTHPHPGEDSSPSIAAVVASQDWPEITKYAGLVCAQAHRQELIQDLFKEWKDPQKGVVTGGMIKELLIAFRRSTGHKPLRIIFYRDGVSEGQFYQVLLYELDAIRKACASLEAGYQPPVTFVVVQKRHHTRLFAQNHNDRHSVDRSGNILPGTVVDSKICHPTEFDFYLCSHAGIQGTSRPAHYHVLWDENNFTADGLQSLTNNLCYTYARCTRSVSIVPPAYYAHLAAFRARFYMEPETSDSGSMASGSMARGGGMAGRSTRGPNVNAAVRPLPALKENVKRVMFYC
B5: the binding result is given as “binds”.
